PubChem BioAssay AID1159578 – Peter MacCallum Cancer Centre – 2015
Test: 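Genome-wide hunt for genes controlling movement of lymphatic endothelial cells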 (primary screen). System: human lymphatic endothelial cells. Reagent: siRNA pool against human genes, 40 nM. Duration: 48 h after transfection. Measurement: 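Cells stained with dye and imaged after a scratch; covered wound area and nuclei counted, duplicates averaged, migration set against mock wells and turned into a robust z-score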. Reading the numbers: migration robust z-score: higher = faster migration into the scratch; nuclei per well: higher = more cells in the well. Rule for the call: 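Pools averaging fewer than 3300 nuclei are never called; remaining pools count as changed when migration robust z lies outside -2 to 2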. Meaning of the calls: active = migration changed; inactive = no migration change, or too few cells.
Here is an unselected part of about 18,000 reagents. About 1,030 of all reagents (5.7%) were called active. 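Inactive calls also include pools with fewer than 3300 nuclei, whose migration was not assessed.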 Raw values are not corrected between plates. Not all columns of the deposit are shown.

target gene | migration robust z-score | nuclei per well, duplicate mean | call
PDAP1 | 0.54 | 5630 | inactive
MAPK9 | -1.77 | 4506 | inactive
RBCK1 | -0.05 | 5359 | inactive
ZNF708 | 0.18 | 7220 | inactive
PPP2R5E | -0.99 | 4760 | inactive
AMDHD2 | -0.65 | 5151 | inactive
CYTH3 | -0.78 | 4982 | inactive
C6orf58 | 0.99 | 6270 | inactive
LSM14A | 0.9 | 6422 | inactive
CHRM2 | 1.9 | 6240 | inactive
ZSCAN1 | 1.27 | 7272 | inactive
FGD4 | 0.53 | 5346 | inactive
CPQ | -0.93 | 4928 | inactive
AMHR2 | -2.86 | 3332 | active
SPARCL1 | 1.4 | 6013 | inactive
TRIM31 | -2 | 4997 | inactive
FMN2 | 4.34 | 6490 | active
DGUOK | -0.72 | 4683 | inactive
ZNF770 | -1.49 | 4994 | inactive
SNX20 | -0.36 | 5684 | inactive
ARR3 | 0.92 | 6523 | inactive
MSH4 | -5.13 | 2937 | inactive
PPAT | 0.24 | 4957 | inactive
TWF2 | 0.54 | 5190 | inactive

Reprinted from the entries so far for reference:
target gene | migration robust z-score | nuclei per well, duplicate mean | call
MAPK9 | -1.77 | 4506 | inactive
RBCK1 | -0.05 | 5359 | inactive
ZNF708 | 0.18 | 7220 | inactive
PPP2R5E | -0.99 | 4760 | inactive

Further entries:
target gene | migration robust z-score | nuclei per well, duplicate mean | call
SCAMP1 | -0.78 | 6328 | inactive
TMPRSS7 | 0.36 | 5366 | inactive
HSF5 | 1.23 | 6306 | inactive
RUFY3 | -0.56 | 5888 | inactive
TMPRSS2 | 0.83 | 5499 | inactive
ERMP1 | 0.37 | 6543 | inactive
ARMC6 | -0.53 | 5454 | inactive
CFAP161 | 0.78 | 5142 | inactive
IRX6 | -0.51 | 5843 | inactive
LGR5 | 0.46 | 6613 | inactive
CHI3L1 | -1.06 | 7444 | inactive
LONP1 | 0.47 | 5794 | inactive
TMTC3 | 1.54 | 7018 | inactive
AMIGO3 | -1.56 | 5754 | inactive
MRPL57 | -0.69 | 5972 | inactive
